PubChem BioAssay AID2685 (National Center for Advancing Translational Sciences (NCATS), 2010)
The other results are listed elsewhere or left out. The main result of the screen is listed elsewhere. These columns were measured beside it and carry no call. Most of these compounds were active or inconclusive in the main read-out, so they are no random draw. Words in brackets tell the shape of the fitted curve; partial curves, single points and poor fits give uncertain potencies.

Test: qHTS Assay for Lipid Storage Modulators in Drosophila S3 Cells;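 on cell number change: cells counted by Cell Tracker Red CMTPX staining in the red channel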
Settings: BODIPY lipid droplet fluorescence, 18-24 h; for cell number change: measured here: cell count max response, cells fed with added oleic acid
In short: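 Drosophila S3 cells loaded with oleic acid (400 uM, as added) and compounds at several concentrations; lipid droplets imaged by 488-nm laser-scanning cytometry, 500–530 nm intensity and object ratio to cell channel. Percent activity normalized to 20 uM Triacsin C.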

[1] = measured here: cell number channel AC50, cells fed with added oleic acid
[2] = measured here: lipid fluorescence (Fed channel) AC50, cells fed with added oleic acid

C/C(=N\NC(=O)c1cccc(F)c1)c1cccc(NC(=O)c2ccc(F)cc2)c1
cell number change: 18.3%
AC50 [1]: 7.31 µM [rising, partial curve]
AC50 [2]: 1.64 µM [rising, full curve, poor fit]

Cc1nn(C(=O)c2nn(C)cc2Cl)c(C)c1Br
cell number change: -37.4%
AC50 [1]: 1.84 µM [falling, full curve, poor fit]
AC50 [2]: 3.26 µM [rising, partial curve]

COc1cccc(NC(=O)c2cc(-c3cccnc3)nc3c(Cl)cccc23)c1
cell number change: 5.14%

O=c1oc2c(CN3CCOCC3)c(O)c(Cl)cc2c2c1CCCC2
cell number change: 49.7%
AC50 [1]: 32.6 µM [rising, single point]

Cc1ccc2[nH]c(C(=O)NCCN3CCCC3)cc2c1
cell number change: -28%
AC50 [2]: 18.4 µM [rising, single point]

CCOc1ccccc1OCCCCOc1ccccc1F
cell number change: 14.2%
AC50 [2]: 8.2 µM [rising, partial curve]

COc1ccc(CN2CCN(Cc3c[nH]c4ccccc34)CC2CCO)c(F)c1 (stereo not given)
cell number change: -32%
AC50 [1]: 29.1 µM [falling, single point]
AC50 [2]: 29.1 µM [falling, partial curve, poor fit]

CCOc1ccccc1NC(=O)NCCN1CCCCC1
cell number change: 2.47%
AC50 [2]: 29.1 µM [rising, single point]

C[C@H](NC(=O)c1cc2cc(Cl)ccc2n1C)C(=O)N1CCC(C(=O)O)CC1
cell number change: 20.1%
AC50 [2]: 14.6 µM [rising, partial curve, poor fit]

Cc1ccc(-c2nn(-c3ccc(F)cc3)cc2C(=O)NC2CCC(O)CC2)cc1 (stereo not given)
cell number change: 38.4%
AC50 [1]: 18.4 µM [rising, single point]

O=S(=O)(NCC1CC1)c1cc(Cl)cc(Cl)c1
AC50 [1]: 0.184 µM [falling, full curve]

CCN1CCc2c(C#N)c(NCc3ccccc3)nc(NCCO)c2C1
cell number change: -19.6%

COc1ccc2nc(NC(=O)CSc3nnc(C)s3)sc2c1
cell number change: 2.87%
AC50 [2]: 6.51 µM [falling, single point]

COc1cc(Nc2nc(SCC#N)nc3ccccc23)cc(OC)c1OC
cell number change: -19.1%
AC50 [2]: 0.259 µM [falling, full curve, poor fit]

CCSc1ncc(C#N)c(N)n1
cell number change: -52.4%
AC50 [1]: 23.1 µM [falling, single point]

COc1ccc(CCN2CC(C(=O)N3CCC(O)(c4ccccc4)CC3)CCC2=O)cc1 (stereo not given)
cell number change: -4.4%
AC50 [2]: 2.91 µM [rising, single point]

Cc1cc(NC(=O)c2cccc(S(=O)(=O)Nc3cccc(C(=O)O)c3)c2)no1
cell number change: 24.8%
AC50 [2]: 0.58 µM [rising, single point]

CN(Cc1ccccc1)C(=O)C1CCC(CNS(=O)(=O)c2cccc3cccnc23)CC1 (stereo not given)
cell number change: -7.68%

O=C(/C=C/c1cccc([N+](=O)[O-])c1)Nc1ccccc1N1CCOCC1
cell number change: 14.3%
AC50 [2]: 7.31 µM [rising, partial curve]

O=C(Cc1ccc(Cl)cc1)NCCS(=O)(=O)N1CCN(c2ccccc2)CC1
cell number change: -8.46%
AC50 [2]: 0.00461 µM [falling, full curve, poor fit]

O=C1C(Cl)=C(N2CCN(c3ccccc3[N+](=O)[O-])CC2)C(=O)c2ccccc21
cell number change: -45.9%
AC50 [1]: 36.6 µM [falling, partial curve, poor fit]
AC50 [2]: 25.9 µM [falling, partial curve, poor fit]

CC12CCC(C1)C(C)(C)C2NS(=O)(=O)c1ccc(F)cc1 (stereo not given)
cell number change: -35.2%
AC50 [1]: 14.6 µM [falling, single point]

CCCC(O)(c1ccc(OC)cc1)C(CN1CCOCC1)c1ccc(Cl)cc1 (stereo not given)
cell number change: -14.9%

CC(=O)N1CCN(C(=O)COC(=O)COc2c(C)cc(C)cc2C)CC1
cell number change: -32.2%
AC50 [2]: 6.51 µM [rising, single point]

CC(=O)C1C(c2ccc(C)cc2)c2c(n[nH]c2C)CC1(C)O (stereo not given)
cell number change: -18.1%
AC50 [1]: 0.146 µM [falling, full curve]
AC50 [2]: 1.46 µM [falling, partial curve]

COc1ccc(/C=C2\SC(=O)N=C2N)cc1
cell number change: -33.3%
AC50 [1]: 32.6 µM [falling, single point]

COc1ccc(NC(=O)CS(=O)(=O)c2cn(CC(=O)N3CCOCC3)c3ccccc23)cc1OC
cell number change: -10.1%

O=C(CSc1nnc(CNC(=O)c2cccs2)o1)Nc1cccc(C(F)(F)F)c1
AC50 [1]: 6.51 µM [falling, single point]
AC50 [2]: 6.51 µM [falling, single point]

Cn1c(=O)oc2cc(S(=O)(=O)CCC(=O)Nc3ccccc3)ccc21
cell number change: -0.59%

Fc1ccccc1-n1cn[nH]c1=S
AC50 [1]: 0.731 µM [falling, full curve, poor fit]

Cc1ccc(CNC(=O)[C@H](C)NC(=O)C2CCN(C(=O)[C@@H](N)CC(C)C)CC2)cc1
cell number change: 2.91%
AC50 [2]: 29.1 µM [rising, single point]

Cc1cccc(N(C(=O)c2csnn2)C(C(=O)NCc2ccccc2)c2ccncc2)c1 (stereo not given)
cell number change: 28.4%
AC50 [2]: 4.11 µM [rising, full curve]

O=C1/C(=C/c2cccnc2)Oc2cc(OS(=O)(=O)c3ccc(F)cc3)ccc21
cell number change: 7.12%
AC50 [2]: 5.17 µM [rising, single point]

Cc1ccc(C)c(S(=O)(=O)N2CCN(C(=O)Cn3c(=O)cnc4ccccc43)CC2)c1
cell number change: -50%
AC50 [1]: 25.9 µM [falling, single point]

O=C(c1ccc(Cn2c(=S)[nH]c3ccc(N4CCOCC4)cc3c2=O)cc1)N1CCC(N2CCCCC2)CC1
cell number change: -42.8%
AC50 [1]: 6.51 µM [falling, single point]
AC50 [2]: 4.11 µM [falling, partial curve, poor fit]

CCCOC(=O)c1ccc(NC(=O)c2ccoc2C)cc1
cell number change: -36.4%
AC50 [1]: 29.1 µM [falling, single point]
AC50 [2]: 29.1 µM [falling, single point]

Cc1ccccc1NC(=O)c1cccc(N2C(=O)C3CCC(C)CC3C2=O)c1 (stereo not given)
cell number change: -7.39%

Cc1cccc(CS(=O)(=O)c2ncc(Cl)c(C(=O)NCc3ccc4c(c3)OCO4)n2)c1
AC50 [2]: 5.17 µM [falling, partial curve]

Cc1cnc(NC(=O)CSc2c(Cl)cccc2Cl)s1
AC50 [2]: 0.58 µM [rising, single point]

Cc1ccc(/C=C/C2=Cc3c(sc(NC(=O)CSc4n[nH]c(N)n4)c3C#N)C(C)(C)C2)o1
cell number change: -2.76%
AC50 [2]: 9.2 µM [falling, partial curve]

COc1ccc(C(=O)C2CCCN(C(=O)c3noc4c3CCCC4)C2)cc1F (stereo not given)
cell number change: -7.88%
AC50 [2]: 13 µM [falling, partial curve]

CCCCC(CC)CNC(=O)c1ccc2c(c1)OCO2 (stereo not given)
cell number change: -7.85%
AC50 [2]: 0.517 µM [rising, full curve, poor fit]

O=C(CCc1ccncc1)N1CCCC(Nc2ccc(F)cc2)C1 (stereo not given)
cell number change: 12.6%

CC(C)C(NC(=O)c1ccccc1)C(=O)OCC(=O)N1CCN(c2ccccc2)CC1 (stereo not given)
cell number change: -21.6%
AC50 [2]: 0.231 µM [falling, full curve]

COc1cccc(CN(C)C(=O)c2cc(COc3ccc(-n4cncn4)cc3)on2)c1
AC50 [2]: 1.3 µM [rising, partial curve]

CCCN1CCN(C(=O)c2ccc(Sc3ccc(C)cc3)c(NC(C)=O)c2)CC1
cell number change: -18.8%

CCC(Oc1ccc2ccccc2c1)C(=O)O (stereo not given)
cell number change: 15.8%
AC50 [2]: 0.651 µM [rising, partial curve, poor fit]

O=C(Nc1ccc(N2CCOCC2)nc1)c1c(F)cccc1F
cell number change: 2.12%
AC50 [1]: 6.51 µM [falling, single point]

O=C1CSC(c2ccc(Cl)cc2)N1 (stereo not given)
cell number change: 14.1%

CCNC(=O)CON=C1c2ccccc2-c2ccccc21
cell number change: 39.7%
AC50 [1]: 10.3 µM [rising, partial curve]

NS(=O)(=O)c1cccc2c1c([N+](=O)[O-])cc1nc(O)c(O)nc12
cell number change: -31.5%
AC50 [1]: 14.6 µM [falling, partial curve]

O=[N+]([O-])c1nn(-c2ccc3c(c2)OCCO3)n(O)c1=NCc1ccc(F)cc1
cell number change: 4.93%

O=c1[nH]c2ccccc2n1CCCOc1ccccc1
cell number change: -17.5%
AC50 [2]: 0.651 µM [rising, full curve]

CSC1=N/C(=C\C=C\c2cccs2)C(=O)S1
cell number change: -122%
AC50 [1]: 14.6 µM [falling, partial curve]
AC50 [2]: 14.6 µM [falling, partial curve]

COc1ccccc1CN1CCCC(N2CCN(c3ccccc3OC)CC2)C1 (stereo not given)
cell number change: 5.5%
AC50 [2]: 29.1 µM [rising, single point]

O=C(c1ccco1)N1CCN(C(=O)C2CC(c3ccc(Cl)cc3)=NO2)CC1 (stereo not given)
cell number change: 1.37%
AC50 [2]: 6.51 µM [rising, single point]

COc1ccc(N2CCN(C(=O)c3cccc(S(=O)(=O)N4CCCc5ccccc54)c3)CC2)cc1
cell number change: -9.52%

CN1CCN(S(=O)(=O)c2ccc3c(c2)C(C)(C)C(=O)N3C)CC1
cell number change: 13.8%
AC50 [2]: 0.00517 µM [falling, full curve, poor fit]

COC(=O)C1CCN(c2cc(=O)n(-c3ccc(OC)cc3)c(=O)[nH]2)CC1
cell number change: -80.2%
AC50 [1]: 29.1 µM [falling, single point]
AC50 [2]: 0.366 µM [falling, single point]

COc1ccc(/C=C/C(=O)NCc2cn(C)nc2C)cc1COc1ccc(Cl)cc1Br
cell number change: -35.9%
AC50 [1]: 10.3 µM [falling, partial curve, poor fit]
AC50 [2]: 29.1 µM [falling, single point]

COc1ccc(/C=C/C(=O)O)cc1COc1ccccc1C
cell number change: -0.965%
AC50 [2]: 23.1 µM [rising, partial curve]
